Earlier results on 2 molecules are cited in publication PMC9974466 (Proceedings of the National Academy of Sciences of the …, 2023).

For the data set, the system named is GH4C1 cells. The following applies: CM from GH4C1 cells infected with human preproPTH vector, antibody raised against [S1]PTH(−6 to +7); ref [5]; cited from earlier work.

For the molecule “SVSEIQ … LMHNLGKHLNSMERVEWLRKKLQDVHNFVALGAPLAPRDAGSQRPRKKEDNVLVESHEKSLGEADKADVNVLTKAKSQ [PTH(1-84), Recombinant PTH(1-84) was from Chugai Pharmaceutical Co., Ltd]”, the “Detection in CM by Western blot” value was “can be detected by Western blot analysis”.

B1: KSVKKRSVSEIQ … LMHNLGKHLNSMERVEWLRKKLQDVHNFVALGAPLAPRDAGSQRPRKKEDNVLVESHEKSLGEADKADVNVLTKAKSQ (protein, UniProt P01270 26-115, looked up)
pro-form: KSVKKRSVSEIQLMHNLGKHLNSMERVEWLRKKLQDVHNFVALGAPLAPRDAGSQRPRKKEDNVLVESHEKSLGEADKADVNVLTKAKSQ
modifications: pro-form
Take B1: the “Detection in CM by Western blot” value is listed as “but not proPTH”.
